# Test results as given in paper PMC10766965.
# The chains behind the UniProt entries cited, without tags or fusion partners.
# UniProt Q16539: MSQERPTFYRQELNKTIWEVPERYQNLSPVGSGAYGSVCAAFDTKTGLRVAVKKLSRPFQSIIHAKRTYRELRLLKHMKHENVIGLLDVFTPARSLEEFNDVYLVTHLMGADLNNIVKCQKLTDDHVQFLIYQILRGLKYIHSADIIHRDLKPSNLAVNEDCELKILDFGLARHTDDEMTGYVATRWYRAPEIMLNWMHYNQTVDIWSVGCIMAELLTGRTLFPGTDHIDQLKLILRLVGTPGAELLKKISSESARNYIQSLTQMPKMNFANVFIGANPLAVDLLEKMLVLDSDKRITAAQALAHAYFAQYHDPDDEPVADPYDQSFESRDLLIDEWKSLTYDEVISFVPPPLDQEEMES
# UniProt Q9NZ08: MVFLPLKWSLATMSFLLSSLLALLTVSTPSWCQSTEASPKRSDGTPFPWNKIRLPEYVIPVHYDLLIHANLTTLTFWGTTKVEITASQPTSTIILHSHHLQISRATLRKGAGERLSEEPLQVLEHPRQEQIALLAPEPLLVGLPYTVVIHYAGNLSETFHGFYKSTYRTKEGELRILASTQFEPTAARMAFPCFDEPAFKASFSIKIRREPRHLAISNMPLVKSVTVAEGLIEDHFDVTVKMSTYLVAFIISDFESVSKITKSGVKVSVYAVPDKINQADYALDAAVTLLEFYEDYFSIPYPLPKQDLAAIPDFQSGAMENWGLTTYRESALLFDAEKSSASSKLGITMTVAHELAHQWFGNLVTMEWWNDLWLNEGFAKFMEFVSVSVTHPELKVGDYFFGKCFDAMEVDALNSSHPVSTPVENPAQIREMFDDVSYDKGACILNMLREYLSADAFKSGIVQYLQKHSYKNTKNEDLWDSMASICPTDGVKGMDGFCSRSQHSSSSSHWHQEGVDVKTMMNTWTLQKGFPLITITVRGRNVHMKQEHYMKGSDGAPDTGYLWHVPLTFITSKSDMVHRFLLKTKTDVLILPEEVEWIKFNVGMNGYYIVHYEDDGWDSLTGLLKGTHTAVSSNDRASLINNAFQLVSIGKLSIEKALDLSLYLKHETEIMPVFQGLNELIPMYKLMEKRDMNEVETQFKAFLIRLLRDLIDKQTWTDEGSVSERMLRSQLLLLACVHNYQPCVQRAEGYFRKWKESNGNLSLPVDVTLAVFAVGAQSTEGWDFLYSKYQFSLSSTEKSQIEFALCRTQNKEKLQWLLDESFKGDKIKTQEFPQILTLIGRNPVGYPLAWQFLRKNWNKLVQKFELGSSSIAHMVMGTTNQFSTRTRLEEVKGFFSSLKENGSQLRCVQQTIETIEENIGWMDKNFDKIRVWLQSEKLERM
# These are yes or no findings as the source states them, for the method shown. Binding seen in cells or lysates may run through a third protein. Some binding calls cover weakened binding; strength is not graded here. Where a sequence is shown, tags or fusion partners need not be part of it.
# Tests used:
# [1] = target: T1, HA-iRhom1 (UniProt Q6PIX5); assay: co-IP; called 'pull-down assay' in the text; Supplementary Fig. 7, cells and bait not shown
# T1 sequence: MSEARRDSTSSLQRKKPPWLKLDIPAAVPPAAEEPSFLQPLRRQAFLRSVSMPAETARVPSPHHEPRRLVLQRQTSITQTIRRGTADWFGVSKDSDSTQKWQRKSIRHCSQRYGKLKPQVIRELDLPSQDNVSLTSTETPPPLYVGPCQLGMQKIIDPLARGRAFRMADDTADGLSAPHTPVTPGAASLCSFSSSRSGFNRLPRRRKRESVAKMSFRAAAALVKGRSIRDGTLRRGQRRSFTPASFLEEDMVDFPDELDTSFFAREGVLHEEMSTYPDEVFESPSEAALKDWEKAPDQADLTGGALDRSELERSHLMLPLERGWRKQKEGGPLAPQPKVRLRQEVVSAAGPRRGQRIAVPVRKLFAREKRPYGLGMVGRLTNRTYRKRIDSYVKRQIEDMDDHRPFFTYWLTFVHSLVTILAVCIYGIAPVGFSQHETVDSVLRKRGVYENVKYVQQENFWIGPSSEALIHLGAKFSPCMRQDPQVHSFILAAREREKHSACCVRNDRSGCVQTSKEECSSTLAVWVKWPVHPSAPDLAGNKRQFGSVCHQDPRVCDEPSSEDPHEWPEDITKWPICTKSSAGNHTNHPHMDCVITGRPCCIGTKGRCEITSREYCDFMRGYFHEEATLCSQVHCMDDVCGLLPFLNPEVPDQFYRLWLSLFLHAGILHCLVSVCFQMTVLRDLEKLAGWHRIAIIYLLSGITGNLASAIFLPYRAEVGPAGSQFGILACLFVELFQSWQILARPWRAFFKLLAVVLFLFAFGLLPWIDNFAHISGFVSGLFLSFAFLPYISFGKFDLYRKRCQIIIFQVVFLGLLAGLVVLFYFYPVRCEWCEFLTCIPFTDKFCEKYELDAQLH
# [2] = target: T1, HA-iRhom1; assay: co-IP; lysate of HA-iRhom1 expressing 293T cells (IP lysis buffer, protease and phosphatase inhibitors, about 1 mg protein), anti-HA magnetic beads, immunoblot
substance,measurement,setting,value
p-MAPK14 (from UniProt Q16539 1-360),binding,[1],binds
MAPK14 (from UniProt Q16539 1-360),binding,[2],binds
ERAP1 (from UniProt Q9NZ08 1-941),binding,[2],binds
